Laboratory results from patent US9056886B2, “Guanosine-rich modified oligonucleotides and antiproliferative activity thereof” (APTABIO THERAPEUTICS INC., priority 2009, dated 2015).
Some results were stated once for a whole list of compounds, not compound by compound. [5FU] = 5-fluoro-uracil base (5-fluoro-2'-deoxyuridine)

System: PC-3 cell line (prostate cancer cell)
Assay: Cell apoptosis (XTT method) in PC-3 cells
Format: cell-based
Conditions: in terms of IC50 or IC90, FIG. 2
Protocol: Each oligonucleotide was diluted in 10 mM Tris-HCl (pH 7.4) to a final concentration of 100 μM. The diluted solution was placed at 94° C. for 5 minutes and then quickly placed them on ice and left therein for 5 minutes. The resultant was added with 2M KCl to a final concentration of 50 mM, left at 60° C. for 3 hours and then slowly cooled down to room temperature.
One day before the experiment, 190 μL of culture, wherein PC-3 cell line(prostate cancer cell) was suspended at a concentration of 10^3-10^4/mL, was inoculated respectively into each well of a 96 well plate. The next day, 10 μL of the oligonucleotide solution prepared in Example 1 was added and cultured for six days. Six days after the inoculation, cell apoptosis rate measured by means of XTT method [JBC 1999, 26369].

APT-2002: NNNGGTGGTGGTGGTTGTGGTGGTGGTGG (SEQ. ID. NO. 2); N=5-F-deoxyuridine, G=2-deoxy-guanosine, H=thymidine (DNA UUUGGTGGTGGTGGTTGTGGTGGTGGTGG; DNA, [5FU] at 1, 2, 3, backbone not given here)
cell apoptosis rate higher than those of APT-4001 (positive control) and APT-4002 (negative control): 3-10 times
